# Source: PMC9209781
# These are yes or no findings as the source states them, for the method shown.
# B1: Transcription factor MYBS1 (Q8LH59) (protein, UniProt Q8LH59 1-306)
# chain: MTSQAATTTTTAAAAAAWTREDDKAFENALAACAAPPPADGGAPDDDWFAALAASVPGARSAEEVRRHYEALVEDVAAIDAGRVPLPRYAGEESAAPPDGAGAAAAASKDGGHRRDERKGGGGGYDGGKSCSKAEQERRKGIPWTEEEHRLFLLGLDKFGKGDWRSISRNFVISRTPTQVASHAQKYFIRLNSMNRDRRRSSIHDITSVTAGDQVAAQQGAPITGHQATGNPAAAALGPPGMKHHHHHHPGGAPPPMPMYSAAPMGHPVAGHMVPAAVGTPVVFPPGHAPYVVPVGYPAPPAKMHQ
# Molecular target: Rice stripe virus (RSV) P2 (rice stripe virus)
# Test: two-hybrid; RSV P2 in pGBKT7 (binding domain), rice proteins in pGADT7 (activation domain); co-transformed into AH109 yeast; grown on SD-LT, spotted on SD-A-H-L-T, 30°C
binder,measurement,value
B1,binding,no binding
